Data as given in publication PMC3788105.
No constants are given. Whether binding was seen depends on the method and setting. In cells and extracts the contact can be indirect. Some binding calls cover weakened binding; strength is not graded here.

Target: HA-tagged WT Htz1 (S. cerevisiae H2A.Z) (S. cerevisiae), Q12692
Assay: co-IP; HA-Htz1 immunoprecipitated from soluble yeast cell lysate with monoclonal anti-HA agarose beads overnight at 4°C, washed three times in co-IP buffer; partners detected by immunoblot (anti-Flag or anti-Chz1)
Settings: remark: other sources report otherwise

B1: Chz1, P40019 1-153 (protein)
chain: MSDEAKEKRELESQKESSHNKSEKSVEPKPKRRRRRNYDDYDAEVAKEETKAKNGLTKSENNGTVEDSESDMDDAKLDALMGNEGEEEEDDLAEIDTSNIITSGRRTRGKVIDYKKTAEELDKKEPSTGSKDDVGYGEKEEDDEDEEDDDFKE
binding: binds
